# Some of the results follow.
# How the values were obtained:
# Assay in all cases: glycan array binding signal (z-score within array); higher = stronger binding
# Settings in all cases: glycan notation: IUPAC condensed, linker removed
# [1] = target: Gal(b1-4)GlcNAc(b1-2)Man(a1-6)Man(b1-4)GlcNAc(b1-4)GlcNAc
# Procedure, shortened: (§1)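 The binding signal is a Z-score computed within each array. Data were drawn from 3228 arrays in the Consortium for Functional Glycomics database, restricted to those with a known protein sequence. Scores were averaged over arrays of the same protein sequence at different concentrations or buffers, and over linkers, and negative values can be taken as non-binding.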
# [2] = target: Gal(b1-4)GlcNAc(b1-2)Man(a1-6)[GlcNAc(b1-2)Man(a1-3)]Man(b1-4)GlcNAc(b1-4)GlcNAc
# Procedure, shortened: as §1
# [3] = target: Gal(b1-4)GlcNAc(b1-2)Man(a1-6)[Man(a1-3)]Man(b1-4)GlcNAc(b1-4)GlcNAc
# Procedure, shortened: as §1
# [4] = target: Gal(b1-4)GlcNAc(b1-2)[Gal(b1-4)GlcNAc(b1-4)]Man(a1-3)[Gal(b1-4)GlcNAc(b1-2)Man(a1-6)]Man(b1-4)GlcNAc(b1-4)GlcNAc
# Procedure, shortened: as §1
# [5] = target: Gal(b1-4)GlcNAc(b1-2)[Gal(b1-4)GlcNAc(b1-4)]Man(a1-3)[Gal(b1-4)GlcNAc(b1-2)[Gal(b1-4)GlcNAc(b1-6)]Man(a1-6)]Man(b1-4)GlcNAc(b1-4)GlcNAc
# Procedure, shortened: as §1
# [6] = target: Gal(b1-4)GlcNAc(b1-2)[Gal(b1-4)GlcNAc(b1-4)]Man(a1-3)[GlcNAc(b1-4)][Gal(b1-4)GlcNAc(b1-2)Man(a1-6)]Man(b1-4)GlcNAc(b1-4)GlcNAc
# Procedure, shortened: as §1
# [7] = target: Gal(b1-4)GlcNAc(b1-2)[Gal(b1-4)GlcNAc(b1-4)]Man(a1-3)[GlcNAc(b1-4)][Gal(b1-4)GlcNAc(b1-2)[Gal(b1-4)GlcNAc(b1-6)]Man(a1-6)]Man(b1-4)GlcNAc(b1-4)GlcNAc
# Procedure, shortened: as §1
# [8] = target: Gal(b1-4)GlcNAc(b1-2)[Gal(b1-4)GlcNAc(b1-6)]Man(a1-6)[Gal(b1-4)GlcNAc(b1-2)Man(a1-3)]Man(b1-4)GlcNAc(b1-4)GlcNAc
# Procedure, shortened: as §1
# [9] = target: Gal(b1-4)GlcNAc(b1-2)[Gal(b1-4)GlcNAc(b1-6)]Man(a1-6)[Gal(b1-4)GlcNAc(b1-2)Man(a1-3)]Man(b1-4)GlcNAc(b1-4)[Fuc(a1-6)]GlcNAc
# Procedure, shortened: as §1
# [10] = target: Gal(b1-4)GlcNAc(b1-2)[Gal(b1-4)GlcNAc(b1-6)]Man(a1-6)[GlcNAc(b1-4)][Gal(b1-4)GlcNAc(b1-2)Man(a1-3)]Man(b1-4)GlcNAc(b1-4)GlcNAc
# Procedure, shortened: as §1
# [11] = target: Gal(b1-4)GlcNAc(b1-2)[Gal(b1-4)GlcNAc(b1-6)]Man(a1-6)[GlcNAc(b1-4)][Gal(b1-4)GlcNAc(b1-2)[Gal(b1-4)GlcNAc(b1-4)]Man(a1-3)]Man(b1-4)GlcNAc(b1-4)[Fuc(a1-6)]GlcNAc
# Procedure, shortened: as §1
# [12] = target: Gal(b1-4)GlcNAc(b1-3)Gal(b1-3)GalNAc
# Procedure, shortened: as §1
# [13] = target: Gal(b1-4)GlcNAc(b1-3)Gal(b1-3)GlcNAc
# Procedure, shortened: as §1
# [14] = target: Gal(b1-4)GlcNAc(b1-3)Gal(b1-4)Glc
# Procedure, shortened: as §1
# [15] = target: Gal(b1-4)GlcNAc(b1-3)Gal(b1-4)GlcNAc
# Procedure, shortened: as §1
# [16] = target: Gal(b1-4)GlcNAc(b1-3)Gal(b1-4)GlcNAc(b1-2)Man(a1-3)[Gal(b1-4)GlcNAc(b1-3)Gal(b1-4)GlcNAc(b1-2)Man(a1-6)]Man(b1-4)GlcNAc(b1-4)GlcNAc
# Procedure, shortened: as §1
# [17] = target: Gal(b1-4)GlcNAc(b1-3)Gal(b1-4)GlcNAc(b1-2)Man(a1-3)[Gal(b1-4)GlcNAc(b1-3)Gal(b1-4)GlcNAc(b1-2)Man(a1-6)]Man(b1-4)GlcNAc(b1-4)[Fuc(a1-6)]GlcNAc
# Procedure, shortened: as §1
# [18] = target: Gal(b1-4)GlcNAc(b1-3)Gal(b1-4)GlcNAc(b1-2)[Gal(b1-4)GlcNAc(b1-3)Gal(b1-4)GlcNAc(b1-6)]Man(a1-6)[Gal(b1-4)GlcNAc(b1-3)Gal(b1-4)GlcNAc(b1-2)Man(a1-3)]Man(b1-4)GlcNAc(b1-4)GlcNAc
# Procedure, shortened: as §1
# [19] = target: Gal(b1-4)GlcNAc(b1-3)Gal(b1-4)GlcNAc(b1-2)[Gal(b1-4)GlcNAc(b1-3)Gal(b1-4)GlcNAc(b1-6)]Man(a1-6)[Gal(b1-4)GlcNAc(b1-3)Gal(b1-4)GlcNAc(b1-2)Man(a1-3)]Man(b1-4)GlcNAc(b1-4)[Fuc(a1-6)]GlcNAc
# Procedure, shortened: as §1
# [20] = target: Gal(b1-4)GlcNAc(b1-3)Gal(b1-4)GlcNAc(b1-3)Gal(b1-4)GlcNAc
# Procedure, shortened: as §1
# [21] = target: Gal(b1-4)GlcNAc(b1-3)Gal(b1-4)GlcNAc(b1-3)Gal(b1-4)GlcNAc(b1-2)Man(a1-3)[Gal(b1-4)GlcNAc(b1-3)Gal(b1-4)GlcNAc(b1-3)Gal(b1-4)GlcNAc(b1-2)Man(a1-6)]Man(b1-4)GlcNAc(b1-4)GlcNAc
# Procedure, shortened: as §1
# [22] = target: Gal(b1-4)GlcNAc(b1-3)Gal(b1-4)GlcNAc(b1-3)Gal(b1-4)GlcNAc(b1-2)Man(a1-3)[Gal(b1-4)GlcNAc(b1-3)Gal(b1-4)GlcNAc(b1-3)Gal(b1-4)GlcNAc(b1-2)Man(a1-6)]Man(b1-4)GlcNAc(b1-4)[Fuc(a1-6)]GlcNAc
# Procedure, shortened: as §1
# [23] = target: Gal(b1-4)GlcNAc(b1-3)Gal(b1-4)GlcNAc(b1-3)Gal(b1-4)GlcNAc(b1-2)[Gal(b1-4)GlcNAc(b1-3)Gal(b1-4)GlcNAc(b1-3)Gal(b1-4)GlcNAc(b1-6)]Man(a1-6)[Gal(b1-4)GlcNAc(b1-3)Gal(b1-4)GlcNAc(b1-3)Gal(b1-4)GlcNAc(b1-2)Man(a1-3)]Man(b1-4)GlcNAc(b1-4)[Fuc(a1-6)]GlcNAc
# Procedure, shortened: as §1
# [24] = target: Gal(b1-4)GlcNAc(b1-3)Gal(b1-4)GlcNAc(b1-3)Gal(b1-4)GlcNAc(b1-3)Gal(b1-4)GlcNAc(b1-2)Man(a1-3)[Gal(b1-4)GlcNAc(b1-3)Gal(b1-4)GlcNAc(b1-3)Gal(b1-4)GlcNAc(b1-3)Gal(b1-4)GlcNAc(b1-2)Man(a1-6)]Man(b1-4)GlcNAc(b1-4)GlcNAc
# Procedure, shortened: as §1
# [25] = target: Gal(b1-4)GlcNAc(b1-3)Gal(b1-4)GlcNAc(b1-3)Gal(b1-4)GlcNAc(b1-3)Gal(b1-4)GlcNAc(b1-2)Man(a1-3)[Gal(b1-4)GlcNAc(b1-3)Gal(b1-4)GlcNAc(b1-3)Gal(b1-4)GlcNAc(b1-3)Gal(b1-4)GlcNAc(b1-2)Man(a1-6)]Man(b1-4)GlcNAc(b1-4)[Fuc(a1-6)]GlcNAc
# Procedure, shortened: as §1
# [26] = target: Gal(b1-4)GlcNAc(b1-3)Gal(b1-4)GlcNAc(b1-3)Gal(b1-4)GlcNAc(b1-3)Gal(b1-4)GlcNAc(b1-2)[Gal(b1-4)GlcNAc(b1-3)Gal(b1-4)GlcNAc(b1-3)Gal(b1-4)GlcNAc(b1-3)Gal(b1-4)GlcNAc(b1-6)]Man(a1-6)[Gal(b1-4)GlcNAc(b1-3)Gal(b1-4)GlcNAc(b1-3)Gal(b1-4)GlcNAc(b1-3)Gal(b1-4)GlcNAc(b1-2)Man(a1-3)]Man(b1-4)GlcNAc(b1-4)[Fuc(a1-6)]GlcNAc
# Procedure, shortened: as §1
binder,measurement,setting,value
KISKRILTGKK [NK11 (Sus scrofa)],glycan array binding signal (z-score),[1],-0.6
same,glycan array binding signal (z-score),[2],0.152
same,glycan array binding signal (z-score),[3],0.215
same,glycan array binding signal (z-score),[4],-0.931
same,glycan array binding signal (z-score),[5],-1.25
same,glycan array binding signal (z-score),[6],-0.351
same,glycan array binding signal (z-score),[7],-0.53
same,glycan array binding signal (z-score),[8],-0.892
same,glycan array binding signal (z-score),[9],1.15
same,glycan array binding signal (z-score),[10],-0.241
same,glycan array binding signal (z-score),[11],-0.811
same,glycan array binding signal (z-score),[12],-0.605
same,glycan array binding signal (z-score),[13],-0.763
same,glycan array binding signal (z-score),[14],-0.005
same,glycan array binding signal (z-score),[15],-0.397
same,glycan array binding signal (z-score),[16],1.47
same,glycan array binding signal (z-score),[17],2.38
same,glycan array binding signal (z-score),[18],-0.957
same,glycan array binding signal (z-score),[19],1.67
same,glycan array binding signal (z-score),[20],-0.612
same,glycan array binding signal (z-score),[21],0.967
same,glycan array binding signal (z-score),[22],2.04
same,glycan array binding signal (z-score),[23],1.62
same,glycan array binding signal (z-score),[24],-0.35
same,glycan array binding signal (z-score),[25],1.5
same,glycan array binding signal (z-score),[26],1.05

# Exported with tabs: entries from further up
binder	measurement	setting	value
KISKRILTGKK [NK11 (Sus scrofa)]	glycan array binding signal (z-score)	[8]	-0.892
same	glycan array binding signal (z-score)	[9]	1.15

# Source: the supplement of paper PMC8728848
